Experimental data reported in PubChem BioAssay AID2685 (National Center for Advancing Translational Sciences (NCATS), 2010).
The list shows a part of the results. Shown are side measurements of this screen, not its main read-out; they come without a call. The list favours compounds with an active or inconclusive main result. The note in brackets gives the kind of curve behind each potency; many fits are weak.

Test: qHTS Assay for Lipid Storage Modulators in Drosophila S3 Cells;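 as to cell number change: cells counted by Cell Tracker Red CMTPX staining in the red channel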
Conditions: BODIPY lipid droplet fluorescence, 18-24 h; for cell number change: measured here: cell count max response, cells fed with added oleic acid
Outline: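 Drosophila S3 cells got compounds at several concentrations plus oleic acid (400 uM solution). Laser-scanning cytometry with 488 nm excitation read lipid droplets at 500-530 nm and cells at 575-640 nm. Percent activity was relative to 20 uM Triacsin C.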

[1] = measured here: lipid fluorescence (Fed channel) AC50, cells fed with added oleic acid
[2] = measured here: cell number channel AC50, cells fed with added oleic acid

| Structure (SMILES) | cell number change [%] | AC50 [1] | AC50 [2] |
| --- | --- | --- | --- |
| COc1ccc(OC)c2c1sc(=NC(=O)C1COc3ccccc3O1)n2C (stereo not drawn) | 1.33 | 0.651 µM [rising, full curve, poor fit] | – |
| Cc1ccc2nc(SCC(=O)NCc3ccccc3)nc(=O)n2c1 | -18.2 | – | – |
| COc1ccccc1NC(=O)CC1S/C(=N/N=C(\C)C2CCCCC2)NC1=O (stereo not drawn) | 1.62 | 29.1 µM [falling, single point] | – |
| Cc1cc(C(=O)Nc2ccc3ccccc3c2)c(C)o1 | 13.7 | 7.31 µM [falling, partial curve] | – |
| COc1cccc(-c2csc3nc[nH]c(=O)c23)c1 | – | 1.84 µM [falling, partial curve] | – |
| O=C(CSc1n[nH]c(-c2cccs2)n1)N1CCN(S(=O)(=O)c2ccc3ccccc3c2)CC1 | – | – | 0.00517 µM [falling, full curve, poor fit] |
| CCCCCC(=O)N1CCN(S(=O)(=O)c2ccc3c(c2)OCCO3)CC1 | – | 5.8 µM [falling, partial curve] | 2.31 µM [rising, single point] |
| CCOc1ccc2[nH]c3c(N4CCN(c5ccccn5)CC4)ncnc3c2c1 | – | 0.58 µM [rising, full curve] | 0.58 µM [rising, full curve] |
| COC(=O)c1ccccc1NC(=O)CSc1nc(O)c(-c2ccccc2)c(=O)[nH]1 | -9.85 | 0.146 µM [rising, full curve, poor fit] | – |
| c1ccc(-c2nnc(SCc3nc4ccccc4[nH]3)n2Cc2ccco2)nc1 | -12.2 | – | – |
| CC(=O)c1ccc(OCC(O)CN2C(C)(C)CC(O)CC2(C)C)cc1 (stereo not drawn) | 24.5 | – | – |
| COc1ccc(NC(=O)CSc2nnc(C(C)C)n2N)cc1 | – | 6.51 µM [falling, partial curve] | – |
| O=C(COc1cc(Cl)ccc1Cl)N1CCNC1=O | -0.803 | – | – |
| COc1ccc(OC)c(S(=O)(=O)Nc2cc(Cl)cc(Cl)c2)c1 | -46.4 | 16.4 µM [falling, single point] | 16.4 µM [falling, partial curve, poor fit] |
| CC(=O)Nc1ccc(S(=O)(=O)Nc2nc3ccc([N+](=O)[O-])cc3s2)cc1 | 18.2 | 1.64 µM [rising, partial curve] | 2.06 µM [rising, partial curve] |
| CCN(CC)c1ccc(N)cc1S(=O)(=O)Nc1ccccc1OC | -24.1 | 6.51 µM [rising, single point] | – |
| O=C(NC(c1ccc(Cl)cc1)c1cc(Cl)c2cccnc2c1O)c1cccnc1 (stereo not drawn) | 159 | 13 µM [falling, partial curve] | 29.1 µM [rising, single point] |
| Cc1ccc(C)c(NC(=O)C2CC(Cl)=CCC2C(=O)O)c1 (stereo not drawn) | – | 6.51 µM [rising, single point] | – |
| COc1cc(OC)cc(C(=O)NCC(=O)OCc2nc3ccccc3s2)c1 | – | 3.66 µM [falling, single point] | 0.82 µM [falling, full curve, poor fit] |
| O=C(NC1CCCCC1)C(c1ccc(F)cc1)N(CCCN1CCOCC1)C(=O)c1ccc(CN2CCOCC2)o1 (stereo not drawn) | -9.34 | – | – |

An excerpt of these results, as tab-separated lines:
Structure (SMILES)	cell number change [%]	AC50 [1]	AC50 [2]
CCOc1ccc2[nH]c3c(N4CCN(c5ccccn5)CC4)ncnc3c2c1	–	0.58 µM [rising, full curve]	0.58 µM [rising, full curve]
Cc1ccc(C)c(NC(=O)C2CC(Cl)=CCC2C(=O)O)c1 (stereo not drawn)	–	6.51 µM [rising, single point]	–

Further records.

| Structure (SMILES) | cell number change [%] | AC50 [1] | AC50 [2] |
| --- | --- | --- | --- |
| CCN1C(=O)[C@@H]2[C@H](C1=O)[C@@H]1C(=O)Nc3ccccc3C(=O)N1[C@@H]2c1ccc(Br)cc1 | 30.5 | 0.82 µM [falling, full curve] | – |
| Nn1c(Cc2ccccc2F)n[nH]c1=S | – | 0.58 µM [rising, single point] | – |
| N#CCCSc1ncnc2c1oc1ccccc12 | -10.7 | 2.06 µM [rising, partial curve] | – |
| CCN(CC)c1ccc(N2C(=NC(=O)C3CCCO3)SC3CS(=O)(=O)CC32)cc1 (stereo not drawn) | -6.13 | – | – |
| COc1ccc(N2C(=NC(=O)C3CC3)SC3CS(=O)(=O)CC32)cc1Cl (stereo not drawn) | 7.63 | 0.184 µM [rising, full curve, poor fit] | – |
| CCN(Cc1ccncc1)Cc1nc(Cc2ccccc2Cl)no1 | -20.4 | 0.0326 µM [rising, full curve, poor fit] | – |
| CSc1nc2c(c(=O)[nH]1)C(c1ccncc1)C(C(=O)OC(C)C)=C(C)N2 (stereo not drawn) | -28.7 | – | – |
| CN/N=C/c1ccc(C#N)cc1 | 23.7 | 29.1 µM [falling, single point] | – |
| Cc1ccc(S(=O)(=O)CCC(=O)OCC(=O)NC(C)c2ccccc2)cc1 (stereo not drawn) | 7.89 | 0.58 µM [falling, single point] | – |
| COc1ccccc1C(=O)N1CCN(c2ccc(N3CCOCC3)nn2)CC1 | – | 0.058 µM [rising, full curve] | – |
| Nc1cccc(S(=O)(=O)c2ccc(N)c(N)c2)c1 | -23.3 | 29.1 µM [falling, single point] | – |
| COC(=O)c1ccc(NC(=O)CSc2nnc(COc3c(C)cccc3C)o2)cc1 | 55.5 | 16.4 µM [rising, single point] | – |
| CCOC(=O)CNC(=O)CN1C(=O)CC(c2ccco2)Sc2ccccc21 (stereo not drawn) | -1.76 | 0.164 µM [falling, full curve, poor fit] | – |
| O=C(NCc1ccccc1Cl)C1CCCN(c2nc3ccsc3c(=O)s2)C1 (stereo not drawn) | 81.6 | – | 29.1 µM [rising, single point] |
| S=c1[nH]nc(C2CC2c2ccc(Cl)cc2)n1-c1ccc(Cl)cc1 (stereo not drawn) | -67.6 | 32.6 µM [falling, single point] | 29.1 µM [falling, single point] |
| CCOC(=O)C(C(=O)Nc1ccccc1C)C1CCCCC1 (stereo not drawn) | – | – | 0.411 µM [rising, full curve] |
| CCOc1ccccc1OCC(=O)Nc1ccc(OC)c(S(=O)(=O)N2CCCCC2)c1 | -67.2 | – | 6.51 µM [falling, single point] |
| CC[C@@]12C(=O)N(c3ccccc3)C(=O)N1[C@H](c1cccc(C)c1)[C@@H]1C(=O)N(Cc3ccccc3)C(=O)[C@@H]12 | -10.2 | – | – |
| O=C(CCn1cncn1)N1CCN(S(=O)(=O)c2ccc(Cl)cc2)CC1 | -5.22 | – | – |
| CCCC(C)C(=O)Nc1nc(C)c(-c2csc(Nc3ccc(Cl)cc3)n2)s1 (stereo not drawn) | -22.8 | 18.4 µM [falling, single point] | – |
